From paper PMC4241993
Results are given in words; binding and its absence hold for the method and conditions named. Binding seen in cells or lysates may run through a third protein. Some binding calls cover weakened binding; strength is not graded here. For some of these results: Sequences can lack the tags named with a protein.

Amino acid sequences for entries named in this document (tags omitted). Residues count along the entry.
UniProt Q9HCM2, residues 1311-1894: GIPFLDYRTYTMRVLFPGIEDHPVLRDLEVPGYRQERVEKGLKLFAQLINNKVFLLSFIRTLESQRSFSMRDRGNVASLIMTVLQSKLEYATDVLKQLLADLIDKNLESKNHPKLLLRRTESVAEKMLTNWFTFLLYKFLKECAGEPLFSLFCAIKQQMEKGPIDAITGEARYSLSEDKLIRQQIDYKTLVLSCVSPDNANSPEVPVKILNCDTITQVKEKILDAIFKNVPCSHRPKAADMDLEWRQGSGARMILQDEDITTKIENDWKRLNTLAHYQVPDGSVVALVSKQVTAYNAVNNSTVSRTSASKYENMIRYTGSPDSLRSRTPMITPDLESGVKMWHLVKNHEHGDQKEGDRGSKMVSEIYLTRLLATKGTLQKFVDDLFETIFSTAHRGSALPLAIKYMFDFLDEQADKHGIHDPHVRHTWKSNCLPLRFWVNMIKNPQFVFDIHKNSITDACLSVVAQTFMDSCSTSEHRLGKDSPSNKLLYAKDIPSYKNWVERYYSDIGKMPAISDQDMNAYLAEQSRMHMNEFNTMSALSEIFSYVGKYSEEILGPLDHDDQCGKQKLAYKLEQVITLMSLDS
UniProt O75051, residues 35-1894: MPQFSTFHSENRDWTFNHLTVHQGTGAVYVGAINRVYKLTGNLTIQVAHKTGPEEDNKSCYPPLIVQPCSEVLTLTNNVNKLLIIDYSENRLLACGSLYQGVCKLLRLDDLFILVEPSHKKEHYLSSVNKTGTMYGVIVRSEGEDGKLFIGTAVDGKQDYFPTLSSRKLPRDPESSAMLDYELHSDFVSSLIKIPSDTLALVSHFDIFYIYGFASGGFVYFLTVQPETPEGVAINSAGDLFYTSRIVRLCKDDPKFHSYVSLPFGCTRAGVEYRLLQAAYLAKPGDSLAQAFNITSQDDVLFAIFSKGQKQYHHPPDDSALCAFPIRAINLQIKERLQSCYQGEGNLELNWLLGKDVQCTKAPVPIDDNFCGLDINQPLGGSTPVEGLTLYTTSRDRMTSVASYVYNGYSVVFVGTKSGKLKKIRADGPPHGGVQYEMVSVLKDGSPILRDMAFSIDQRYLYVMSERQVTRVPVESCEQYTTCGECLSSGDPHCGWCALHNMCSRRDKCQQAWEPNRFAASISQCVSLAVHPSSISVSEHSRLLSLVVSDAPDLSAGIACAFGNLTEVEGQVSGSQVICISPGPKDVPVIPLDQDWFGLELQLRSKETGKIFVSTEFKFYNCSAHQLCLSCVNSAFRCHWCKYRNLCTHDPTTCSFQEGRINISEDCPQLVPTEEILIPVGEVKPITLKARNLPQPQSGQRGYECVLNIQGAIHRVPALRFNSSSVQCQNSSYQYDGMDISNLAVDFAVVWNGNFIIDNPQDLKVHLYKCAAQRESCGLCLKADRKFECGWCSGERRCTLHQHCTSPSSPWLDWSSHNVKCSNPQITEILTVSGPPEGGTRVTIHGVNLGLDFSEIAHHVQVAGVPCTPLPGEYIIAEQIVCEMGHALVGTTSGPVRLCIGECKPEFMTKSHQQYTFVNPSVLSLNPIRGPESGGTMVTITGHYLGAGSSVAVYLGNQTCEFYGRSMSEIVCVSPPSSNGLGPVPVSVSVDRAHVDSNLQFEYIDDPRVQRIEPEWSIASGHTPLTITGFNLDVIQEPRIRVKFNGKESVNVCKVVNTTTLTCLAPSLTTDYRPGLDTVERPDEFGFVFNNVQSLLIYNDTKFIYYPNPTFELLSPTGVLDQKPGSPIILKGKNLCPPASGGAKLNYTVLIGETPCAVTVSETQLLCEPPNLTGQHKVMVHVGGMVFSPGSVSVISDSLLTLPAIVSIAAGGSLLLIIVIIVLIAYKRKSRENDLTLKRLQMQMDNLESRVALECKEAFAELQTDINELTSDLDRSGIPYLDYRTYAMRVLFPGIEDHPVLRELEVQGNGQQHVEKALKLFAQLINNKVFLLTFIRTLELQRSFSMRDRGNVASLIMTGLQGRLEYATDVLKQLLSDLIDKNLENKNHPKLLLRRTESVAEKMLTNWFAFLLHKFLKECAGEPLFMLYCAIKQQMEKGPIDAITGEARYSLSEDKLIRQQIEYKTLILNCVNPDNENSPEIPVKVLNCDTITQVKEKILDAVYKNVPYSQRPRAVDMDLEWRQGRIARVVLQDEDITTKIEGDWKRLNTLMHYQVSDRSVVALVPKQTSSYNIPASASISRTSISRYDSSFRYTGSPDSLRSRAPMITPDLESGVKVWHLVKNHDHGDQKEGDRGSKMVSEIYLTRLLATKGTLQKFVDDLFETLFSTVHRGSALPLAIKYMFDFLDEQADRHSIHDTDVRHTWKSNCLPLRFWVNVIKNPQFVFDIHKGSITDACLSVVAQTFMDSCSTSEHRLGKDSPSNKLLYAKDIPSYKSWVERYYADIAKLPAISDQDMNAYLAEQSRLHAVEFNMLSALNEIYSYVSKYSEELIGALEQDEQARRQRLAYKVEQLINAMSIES
UniProt P70207, residues 35-1894: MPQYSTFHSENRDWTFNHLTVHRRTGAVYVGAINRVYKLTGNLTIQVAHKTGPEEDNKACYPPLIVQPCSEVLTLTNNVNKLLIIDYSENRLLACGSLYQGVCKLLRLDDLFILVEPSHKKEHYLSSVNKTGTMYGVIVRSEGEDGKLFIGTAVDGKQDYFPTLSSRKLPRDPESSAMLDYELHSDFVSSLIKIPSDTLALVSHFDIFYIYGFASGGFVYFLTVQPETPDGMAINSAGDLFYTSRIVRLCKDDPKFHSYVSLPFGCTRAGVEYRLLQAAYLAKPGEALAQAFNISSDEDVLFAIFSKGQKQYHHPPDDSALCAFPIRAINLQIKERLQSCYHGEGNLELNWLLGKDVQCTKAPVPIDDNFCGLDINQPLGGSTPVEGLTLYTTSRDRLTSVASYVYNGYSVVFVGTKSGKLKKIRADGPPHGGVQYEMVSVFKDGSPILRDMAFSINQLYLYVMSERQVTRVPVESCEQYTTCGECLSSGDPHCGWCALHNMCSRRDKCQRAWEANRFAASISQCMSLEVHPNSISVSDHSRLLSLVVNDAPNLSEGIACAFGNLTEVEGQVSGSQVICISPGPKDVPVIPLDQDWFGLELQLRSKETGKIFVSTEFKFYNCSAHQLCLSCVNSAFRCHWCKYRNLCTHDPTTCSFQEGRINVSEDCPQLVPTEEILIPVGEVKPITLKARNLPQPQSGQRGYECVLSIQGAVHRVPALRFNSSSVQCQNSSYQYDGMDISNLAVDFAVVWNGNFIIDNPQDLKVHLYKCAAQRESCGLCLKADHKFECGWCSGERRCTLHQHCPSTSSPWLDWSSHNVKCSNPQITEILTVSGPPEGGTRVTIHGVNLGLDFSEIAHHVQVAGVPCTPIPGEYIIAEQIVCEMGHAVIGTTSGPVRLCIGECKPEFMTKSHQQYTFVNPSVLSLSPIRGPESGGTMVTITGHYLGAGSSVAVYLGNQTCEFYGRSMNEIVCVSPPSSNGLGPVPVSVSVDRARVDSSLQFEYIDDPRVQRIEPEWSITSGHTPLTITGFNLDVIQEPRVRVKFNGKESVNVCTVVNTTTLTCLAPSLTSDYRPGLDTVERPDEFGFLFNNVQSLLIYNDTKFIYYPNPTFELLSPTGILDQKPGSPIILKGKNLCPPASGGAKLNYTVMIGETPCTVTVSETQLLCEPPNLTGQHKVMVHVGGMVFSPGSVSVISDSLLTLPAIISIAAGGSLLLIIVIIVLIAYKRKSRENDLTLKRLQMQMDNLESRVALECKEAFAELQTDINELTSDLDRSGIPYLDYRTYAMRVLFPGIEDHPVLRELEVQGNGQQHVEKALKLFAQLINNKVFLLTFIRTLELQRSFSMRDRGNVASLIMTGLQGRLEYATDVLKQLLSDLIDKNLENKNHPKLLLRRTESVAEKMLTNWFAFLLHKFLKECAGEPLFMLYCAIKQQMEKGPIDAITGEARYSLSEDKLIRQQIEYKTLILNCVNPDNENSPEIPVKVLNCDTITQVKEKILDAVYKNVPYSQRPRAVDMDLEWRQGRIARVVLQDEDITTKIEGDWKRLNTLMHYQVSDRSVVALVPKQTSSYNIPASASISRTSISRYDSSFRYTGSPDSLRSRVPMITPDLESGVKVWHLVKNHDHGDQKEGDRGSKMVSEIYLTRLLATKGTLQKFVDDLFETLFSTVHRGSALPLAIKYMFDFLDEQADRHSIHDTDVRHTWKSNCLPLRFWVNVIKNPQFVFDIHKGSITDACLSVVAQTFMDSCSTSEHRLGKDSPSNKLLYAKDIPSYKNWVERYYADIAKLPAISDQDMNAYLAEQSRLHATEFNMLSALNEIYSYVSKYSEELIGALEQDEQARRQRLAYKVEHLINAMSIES
UniProt Q9UIW2, residues 1306-1896: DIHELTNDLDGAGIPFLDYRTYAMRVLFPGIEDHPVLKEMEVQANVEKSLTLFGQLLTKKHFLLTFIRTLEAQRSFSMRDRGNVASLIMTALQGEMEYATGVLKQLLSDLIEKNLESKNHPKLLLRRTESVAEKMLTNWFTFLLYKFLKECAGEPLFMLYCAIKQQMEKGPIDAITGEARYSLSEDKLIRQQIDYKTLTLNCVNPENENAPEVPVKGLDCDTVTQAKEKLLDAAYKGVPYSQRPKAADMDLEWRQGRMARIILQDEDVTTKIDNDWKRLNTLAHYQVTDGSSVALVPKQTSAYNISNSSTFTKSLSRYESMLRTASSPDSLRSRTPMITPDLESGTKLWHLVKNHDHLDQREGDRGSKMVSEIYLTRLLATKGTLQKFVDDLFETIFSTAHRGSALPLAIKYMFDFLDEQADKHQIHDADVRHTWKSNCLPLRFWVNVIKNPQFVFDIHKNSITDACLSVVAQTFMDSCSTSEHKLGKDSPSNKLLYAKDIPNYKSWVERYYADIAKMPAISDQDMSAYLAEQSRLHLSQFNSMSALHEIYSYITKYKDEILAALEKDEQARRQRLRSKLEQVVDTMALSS
UniProt P51805, residues 1242-1871: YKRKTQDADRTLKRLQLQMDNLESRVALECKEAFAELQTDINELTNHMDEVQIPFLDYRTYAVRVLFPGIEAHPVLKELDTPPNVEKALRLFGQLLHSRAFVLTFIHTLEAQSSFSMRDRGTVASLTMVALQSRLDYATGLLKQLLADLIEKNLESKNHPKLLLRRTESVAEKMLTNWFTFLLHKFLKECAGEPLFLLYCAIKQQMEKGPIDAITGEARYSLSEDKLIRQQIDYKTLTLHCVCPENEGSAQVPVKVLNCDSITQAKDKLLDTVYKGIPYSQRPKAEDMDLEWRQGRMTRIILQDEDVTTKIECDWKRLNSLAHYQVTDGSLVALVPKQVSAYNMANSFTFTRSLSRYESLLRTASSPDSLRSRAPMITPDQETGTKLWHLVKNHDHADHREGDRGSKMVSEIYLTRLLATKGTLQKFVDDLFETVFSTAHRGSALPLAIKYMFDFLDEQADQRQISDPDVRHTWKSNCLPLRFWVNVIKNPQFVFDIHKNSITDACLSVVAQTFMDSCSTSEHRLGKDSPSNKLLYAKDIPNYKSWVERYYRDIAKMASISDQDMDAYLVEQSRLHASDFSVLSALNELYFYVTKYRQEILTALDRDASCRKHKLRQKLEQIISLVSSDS

T1: KIAA1199-FLAG (human (cDNA from CaSki cells)) (UniProt Q8WUJ3)
T1 sequence: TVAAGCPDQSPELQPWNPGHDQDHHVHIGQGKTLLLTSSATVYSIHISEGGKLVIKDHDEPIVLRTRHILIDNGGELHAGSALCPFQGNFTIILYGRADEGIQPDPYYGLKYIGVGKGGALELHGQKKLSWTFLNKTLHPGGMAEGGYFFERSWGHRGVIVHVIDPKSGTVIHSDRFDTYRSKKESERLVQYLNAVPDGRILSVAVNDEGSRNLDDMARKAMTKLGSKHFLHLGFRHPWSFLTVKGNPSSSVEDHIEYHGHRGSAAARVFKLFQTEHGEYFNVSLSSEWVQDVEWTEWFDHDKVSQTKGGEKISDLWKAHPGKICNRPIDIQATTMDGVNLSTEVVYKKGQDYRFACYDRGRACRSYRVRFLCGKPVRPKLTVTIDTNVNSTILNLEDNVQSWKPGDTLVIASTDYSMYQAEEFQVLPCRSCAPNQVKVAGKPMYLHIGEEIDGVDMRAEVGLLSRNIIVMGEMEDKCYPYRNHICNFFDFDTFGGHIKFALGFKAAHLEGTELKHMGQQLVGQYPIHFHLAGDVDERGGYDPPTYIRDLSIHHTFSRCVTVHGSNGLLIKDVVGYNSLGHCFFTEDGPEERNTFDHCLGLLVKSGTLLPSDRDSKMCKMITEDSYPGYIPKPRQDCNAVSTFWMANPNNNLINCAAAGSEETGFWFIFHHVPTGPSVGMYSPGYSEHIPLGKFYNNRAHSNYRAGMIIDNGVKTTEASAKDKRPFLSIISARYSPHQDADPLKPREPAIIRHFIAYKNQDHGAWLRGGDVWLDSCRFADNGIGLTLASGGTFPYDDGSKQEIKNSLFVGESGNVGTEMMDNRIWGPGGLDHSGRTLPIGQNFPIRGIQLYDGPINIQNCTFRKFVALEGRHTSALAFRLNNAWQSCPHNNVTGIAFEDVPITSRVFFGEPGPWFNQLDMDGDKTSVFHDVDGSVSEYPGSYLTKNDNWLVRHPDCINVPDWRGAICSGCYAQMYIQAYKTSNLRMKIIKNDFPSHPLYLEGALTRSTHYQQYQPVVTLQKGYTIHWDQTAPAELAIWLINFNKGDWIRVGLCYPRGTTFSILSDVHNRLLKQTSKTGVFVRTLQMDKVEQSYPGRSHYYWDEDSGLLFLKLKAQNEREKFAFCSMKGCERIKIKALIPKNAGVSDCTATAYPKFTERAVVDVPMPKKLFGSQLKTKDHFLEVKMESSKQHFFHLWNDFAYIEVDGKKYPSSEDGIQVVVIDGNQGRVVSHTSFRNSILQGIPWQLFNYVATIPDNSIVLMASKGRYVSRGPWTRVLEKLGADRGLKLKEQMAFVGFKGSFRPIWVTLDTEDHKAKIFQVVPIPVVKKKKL

T2: KIAA1199 (endogenous, CaSki cells) (human (endogenous in CaSki)) (UniProt Q8WUJ3)
T2 sequence: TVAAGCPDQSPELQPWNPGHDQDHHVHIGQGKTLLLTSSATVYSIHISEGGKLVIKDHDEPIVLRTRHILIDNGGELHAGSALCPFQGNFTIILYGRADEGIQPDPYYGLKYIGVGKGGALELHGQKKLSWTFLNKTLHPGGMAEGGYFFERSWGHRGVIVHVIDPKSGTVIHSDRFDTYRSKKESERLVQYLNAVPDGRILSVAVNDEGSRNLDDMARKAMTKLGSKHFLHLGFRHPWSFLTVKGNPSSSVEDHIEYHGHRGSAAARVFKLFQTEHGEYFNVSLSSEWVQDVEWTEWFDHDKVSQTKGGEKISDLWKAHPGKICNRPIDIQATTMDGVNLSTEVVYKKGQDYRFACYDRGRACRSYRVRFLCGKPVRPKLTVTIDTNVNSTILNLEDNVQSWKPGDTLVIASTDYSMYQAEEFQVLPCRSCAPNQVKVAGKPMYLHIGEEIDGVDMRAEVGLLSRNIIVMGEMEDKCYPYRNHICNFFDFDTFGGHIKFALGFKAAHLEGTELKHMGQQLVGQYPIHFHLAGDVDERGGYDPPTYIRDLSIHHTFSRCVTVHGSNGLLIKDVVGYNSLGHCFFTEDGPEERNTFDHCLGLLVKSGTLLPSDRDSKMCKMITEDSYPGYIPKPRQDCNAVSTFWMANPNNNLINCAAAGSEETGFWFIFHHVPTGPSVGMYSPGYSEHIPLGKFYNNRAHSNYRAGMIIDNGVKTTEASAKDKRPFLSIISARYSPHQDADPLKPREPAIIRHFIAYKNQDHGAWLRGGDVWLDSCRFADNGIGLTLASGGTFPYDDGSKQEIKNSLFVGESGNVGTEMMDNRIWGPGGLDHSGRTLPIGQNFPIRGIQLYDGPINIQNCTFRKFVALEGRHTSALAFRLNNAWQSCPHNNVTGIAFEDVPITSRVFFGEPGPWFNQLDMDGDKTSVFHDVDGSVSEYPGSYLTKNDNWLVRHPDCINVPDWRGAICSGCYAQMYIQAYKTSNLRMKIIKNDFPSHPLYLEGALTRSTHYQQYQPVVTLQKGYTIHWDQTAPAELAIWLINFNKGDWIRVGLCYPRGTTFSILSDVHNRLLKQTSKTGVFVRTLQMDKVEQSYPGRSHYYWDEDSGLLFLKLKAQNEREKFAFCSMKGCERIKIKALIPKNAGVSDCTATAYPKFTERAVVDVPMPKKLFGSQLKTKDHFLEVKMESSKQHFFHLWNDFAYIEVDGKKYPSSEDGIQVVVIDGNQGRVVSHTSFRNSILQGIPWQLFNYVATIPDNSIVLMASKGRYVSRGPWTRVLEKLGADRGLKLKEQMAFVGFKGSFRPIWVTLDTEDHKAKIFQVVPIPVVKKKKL

T3: ΔN100 KIAA1199 mutant (FLAG) (human (cDNA from CaSki cells)) (UniProt Q8WUJ3)
T3 sequence: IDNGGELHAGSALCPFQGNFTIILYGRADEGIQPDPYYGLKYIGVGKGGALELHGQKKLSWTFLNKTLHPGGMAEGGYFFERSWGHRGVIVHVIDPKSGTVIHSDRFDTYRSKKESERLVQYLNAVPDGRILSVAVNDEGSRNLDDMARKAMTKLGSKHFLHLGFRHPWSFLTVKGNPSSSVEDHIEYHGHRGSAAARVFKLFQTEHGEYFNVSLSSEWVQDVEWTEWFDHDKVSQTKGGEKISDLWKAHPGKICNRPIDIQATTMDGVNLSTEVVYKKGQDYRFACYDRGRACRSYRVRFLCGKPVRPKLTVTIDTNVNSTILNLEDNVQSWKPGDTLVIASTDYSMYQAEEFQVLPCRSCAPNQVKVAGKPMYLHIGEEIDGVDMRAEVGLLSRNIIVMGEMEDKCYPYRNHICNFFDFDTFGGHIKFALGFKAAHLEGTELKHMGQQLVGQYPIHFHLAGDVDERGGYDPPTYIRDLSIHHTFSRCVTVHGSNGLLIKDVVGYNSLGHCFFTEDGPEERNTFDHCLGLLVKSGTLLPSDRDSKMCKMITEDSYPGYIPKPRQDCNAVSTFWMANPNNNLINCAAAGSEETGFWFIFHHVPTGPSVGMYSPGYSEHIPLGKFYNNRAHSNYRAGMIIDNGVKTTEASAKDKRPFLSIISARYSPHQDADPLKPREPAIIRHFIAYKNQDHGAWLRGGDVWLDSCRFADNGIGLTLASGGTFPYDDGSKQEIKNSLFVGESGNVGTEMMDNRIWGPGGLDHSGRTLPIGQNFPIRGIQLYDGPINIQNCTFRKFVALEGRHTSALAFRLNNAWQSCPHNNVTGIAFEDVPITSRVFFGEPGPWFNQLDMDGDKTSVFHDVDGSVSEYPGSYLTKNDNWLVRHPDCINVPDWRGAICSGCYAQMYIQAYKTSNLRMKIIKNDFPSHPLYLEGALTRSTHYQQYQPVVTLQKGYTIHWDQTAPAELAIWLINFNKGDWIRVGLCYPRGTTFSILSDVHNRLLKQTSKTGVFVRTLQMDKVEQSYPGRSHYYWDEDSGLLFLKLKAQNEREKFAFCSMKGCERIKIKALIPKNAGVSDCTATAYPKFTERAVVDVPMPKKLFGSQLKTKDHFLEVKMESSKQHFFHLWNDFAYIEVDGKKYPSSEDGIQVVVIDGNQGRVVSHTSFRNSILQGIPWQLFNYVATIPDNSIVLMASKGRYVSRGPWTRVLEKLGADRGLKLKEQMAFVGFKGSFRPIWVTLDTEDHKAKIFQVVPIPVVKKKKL


What was measured:
[1] = molecular target: T1, KIAA1199-FLAG (human (cDNA from CaSki cells)); assay: co-IP; HEK293 cells transfected with KIAA1199-FLAG constructs and Myc-tagged Plexin constructs; lysed 24 h after transfection; anti-FLAG IP (anti-HA as negative control) 4-6 h at 4 °C, five washes with lysis buffer; anti-Myc and anti-FLAG blots
[2] = molecular target: T2, KIAA1199 (endogenous, CaSki cells) (human (endogenous in CaSki)); assay: proximity ligation; endogenous proteins in fixed CaSki cells (4% formaldehyde); Duolink Red kit with anti-Plexin A2 monoclonal (MAB10421) and home-made anti-KIAA1199 polyclonal; KIAA1199-depleted cells as negative control
[3] = molecular target: T3, ΔN100 KIAA1199 mutant (FLAG) (human (cDNA from CaSki cells)); assay: co-IP; HEK293 cells transfected with KIAA1199-FLAG constructs and Myc-tagged Plexin constructs; lysed 24 h after transfection; anti-FLAG IP (anti-HA as negative control) 4-6 h at 4 °C, five washes with lysis buffer; anti-Myc and anti-FLAG blots
[4] = molecular target: EGFR (endogenous, CaSki cells) (human (endogenous in CaSki)) (UniProt P00533); assay: co-IP; endogenous proteins; CaSki lysates (25 mM Tris-HCl pH 7.4, 150 mM NaCl, 1 mM EDTA, 1% NP-40); anti-EGFR IP overnight at 4 °C (anti-FLAG as negative control), five washes; blots for KIAA1199, Src, c-Cbl; cells untreated or EGF-stimulated; control, Plexin A2-depleted (Fig. 5d) or KIAA1199-depleted (Fig. 7a) cells

| binding [1] | Molecule | also measured |
| --- | --- | --- |
| no binding | Myc-tagged cytoplasmic domain of Plexin A4 (amino acids 1,311 to 1,894) (from UniProt Q9HCM2 1311-1894) (domain or fragment) | – |
| – | Plexin A2 (endogenous, CaSki cells) (from UniProt O75051 35-1894) (receptor) | binding [2]: binds |
| binds | Myc-tagged mouse Plexin A2 (from UniProt P70207 35-1894) (receptor) | binding [3]: no binding |
| no binding | Myc-tagged cytoplasmic domain of Plexin A1 (amino acids 1,306 to 1,896) (from UniProt Q9UIW2 1306-1896) (domain or fragment) | – |
| no binding | Myc-tagged cytoplasmic domain of Plexin A3 (amino acids 1,242 to 1,871) (from UniProt P51805 1242-1871) (domain or fragment) | – |
| – | KIAA1199 (endogenous, CaSki cells) (protein, UniProt Q8WUJ3 31-1361) TVAAGCPDQSPELQPWNPGHDQDHHVHIGQGKTLLLTSSATVYSIHISEGGKLVIKDHDEPIVLRTRHILIDNGGELHAGSALCPFQGNFTIILYGRADEGIQPDPYYGLKYIGVGKGGALELHGQKKLSWTFLNKTLHPGGMAEGGYFFERSWGHRGVIVHVIDPKSGTVIHSDRFDTYRSKKESERLVQYLNAVPDGRILSVAVNDEGSRNLDDMARKAMTKLGSKHFLHLGFRHPWSFLTVKGNPSSSVEDHIEYHGHRGSAAARVFKLFQTEHGEYFNVSLSSEWVQDVEWTEWFDHDKVSQTKGGEKISDLWKAHPGKICNRPIDIQATTMDGVNLSTEVVYKKGQDYRFACYDRGRACRSYRVRFLCGKPVRPKLTVTIDTNVNSTILNLEDNVQSWKPGDTLVIASTDYSMYQAEEFQVLPCRSCAPNQVKVAGKPMYLHIGEEIDGVDMRAEVGLLSRNIIVMGEMEDKCYPYRNHICNFFDFDTFGGHIKFALGFKAAHLEGTELKHMGQQLVGQYPIHFHLAGDVDERGGYDPPTYIRDLSIHHTFSRCVTVHGSNGLLIKDVVGYNSLGHCFFTEDGPEERNTFDHCLGLLVKSGTLLPSDRDSKMCKMITEDSYPGYIPKPRQDCNAVSTFWMANPNNNLINCAAAGSEETGFWFIFHHVPTGPSVGMYSPGYSEHIPLGKFYNNRAHSNYRAGMIIDNGVKTTEASAKDKRPFLSIISARYSPHQDADPLKPREPAIIRHFIAYKNQDHGAWLRGGDVWLDSCRFADNGIGLTLASGGTFPYDDGSKQEIKNSLFVGESGNVGTEMMDNRIWGPGGLDHSGRTLPIGQNFPIRGIQLYDGPINIQNCTFRKFVALEGRHTSALAFRLNNAWQSCPHNNVTGIAFEDVPITSRVFFGEPGPWFNQLDMDGDKTSVFHDVDGSVSEYPGSYLTKNDNWLVRHPDCINVPDWRGAICSGCYAQMYIQAYKTSNLRMKIIKNDFPSHPLYLEGALTRSTHYQQYQPVVTLQKGYTIHWDQTAPAELAIWLINFNKGDWIRVGLCYPRGTTFSILSDVHNRLLKQTSKTGVFVRTLQMDKVEQSYPGRSHYYWDEDSGLLFLKLKAQNEREKFAFCSMKGCERIKIKALIPKNAGVSDCTATAYPKFTERAVVDVPMPKKLFGSQLKTKDHFLEVKMESSKQHFFHLWNDFAYIEVDGKKYPSSEDGIQVVVIDGNQGRVVSHTSFRNSILQGIPWQLFNYVATIPDNSIVLMASKGRYVSRGPWTRVLEKLGADRGLKLKEQMAFVGFKGSFRPIWVTLDTEDHKAKIFQVVPIPVVKKKKL | binding [4]: binds |
